Library compounds against nucleic acid targets

Targets, with sequences 5′ to 3′:
T1: TPP riboswitch RNA three-way junction, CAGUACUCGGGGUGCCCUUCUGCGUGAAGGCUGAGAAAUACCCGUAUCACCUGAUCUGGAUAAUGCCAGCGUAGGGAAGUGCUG. About 24,000 compounds screened, about 160 hits.
T2: PreQ1 riboswitch RNA pseudoknot, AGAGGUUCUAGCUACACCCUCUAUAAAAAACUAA. From B. subtilis. About 24,000 compounds screened, about 170 hits.
T3: SAM-II riboswitch RNA pseudoknot, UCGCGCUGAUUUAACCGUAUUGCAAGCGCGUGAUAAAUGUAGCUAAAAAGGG. About 21,000 compounds screened, about 200 hits.

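Each compound is printed as two spots on a slide made to bind it covalently, so it has no test concentration; the read-out is fluorescence of the bound, labelled oligonucleotide. For the PreQ1, TPP and SAM-II riboswitches the laboratory earlier reported (doi:10.1038/s41467-019-09493-3) 1 µM RNA, 2 h, and a rule that included a mean Z-score above 3 (spot signal-to-noise against the whole library), a score well above that on a control array, and duplicate spots agreeing (coefficient of variation under 100). The data file gives only the calls; its cut-offs may differ, and compounds hitting several targets are kept. The calls come from the array alone, and fixing a compound to the slide can hide its binding.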 Key: active = hit, inactive = tested without a hit. Compounds were drawn at random from those tested, without regard to their results. A target missing from an entry has no call listed here. A dash means that no call is listed here.

Calls for CC1(C)CC(C(CCN)c2ccccc2)CCO1 (stereo unspecified) are T1: inactive; T2: inactive; T3: inactive.
Calls for CSc1nc2c(c(Nc3ccccc3C)n1)CCC2 are T1: inactive; T2: inactive.
Calls for NC(=O)C1=C(Nc2ccccc2)c2ccccc2S1(=O)=O are T1: inactive; T2: inactive.
Calls for Nc1ccc(N2CCOCC2)cc1 are T1: inactive; T2: inactive; T3: inactive.
Calls for COc1cc(OC)c(-c2c(C#N)c(N)n3c(nc4ccccc43)c2C#N)cc1OC are T1: inactive; T2: inactive; T3: inactive.
Calls for COc1cccc(Nc2c(-c3ccc(O)cc3)nc3cnccn23)c1 are T1: inactive; T2: inactive.
Calls for CC1=C(c2ccccc2)S(=O)(=O)N=C1NCc1ccc(N(C)C)cc1 are T1: inactive; T2: inactive.
Calls for N#CC1=C(N)Oc2c(c(=O)oc3ccccc23)C1c1ccc(O)cc1 (stereo unspecified) are T1: inactive; T2: inactive; T3: inactive.
Calls for Cc1n[nH]c(N)c1-c1ccccc1F are T1: inactive; T2: inactive; T3: inactive.
Calls for O=c1[nH]c(NCCCO)c(Br)c(=O)[nH]1 are T1: inactive; T2: inactive; T3: inactive.
Calls for CC1(C)CC(=O)C2=C(C1)OC(N)=C(C#N)C2c1cc(Br)ccc1F (stereo unspecified) are T1: inactive; T2: inactive; T3: inactive.
Calls for Cc1cccc(Nc2nc3ccccc3c3nnc(C)n23)c1C are T1: inactive; T2: inactive.
Calls for CC1CCCCN1S(=O)(=O)c1ccc(CCN)cc1 (stereo unspecified) are T1: inactive; T2: inactive; T3: inactive.
Calls for CCn1c(=O)oc2cc(N)ccc21 are T1: inactive; T2: inactive; T3: inactive.
Calls for COc1ccccc1Nc1nc(N)nc(CSc2nc3ccccc3s2)n1 are T1: inactive; T2: inactive; T3: inactive.
Calls for Fc1ccc(N2CCC(N[C@H]3CC[C@@H]4CCC[C@@H]43)CC2)cc1 are T1: inactive; T2: inactive; T3: inactive.
Calls for COc1ccccc1NCc1nnc(-c2ccccc2)o1 are T1: inactive; T2: inactive.
Calls for NC1CCCCN(Cc2cc(C3CCCCC3)no2)C1 (stereo unspecified) are T1: inactive; T2: inactive; T3: inactive.
Calls for O=C1CC(NC2CCCC2)C(=O)N1c1ccc(Cl)cc1 (stereo unspecified) are T1: inactive; T2: inactive; T3: inactive.
Calls for CCOC(=O)N1CCC(Nc2nc3ccc(C)cc3nc2-n2nc(C)cc2C)CC1 are T1: inactive; T2: inactive; T3: inactive.
Calls for Cc1ccc(C(CCO)NC(=O)c2ccc(-c3cc[nH]n3)cc2)cc1 (stereo unspecified) are T1: inactive; T2: inactive; T3: inactive.
Calls for COc1cc(C(=O)c2cocc2C(=O)c2ccc3c(c2)OCO3)cc(OC)c1OC are T1: inactive; T2: inactive; T3: inactive.
Calls for Cc1c(Cl)cccc1-n1nnc(-c2nc(-c3ccc(F)cc3)no2)c1N are T1: inactive; T2: inactive.
Calls for CCC(C)C1C(C#N)=C(N)OC2=C1C(=O)CC(C)(C)C2 (stereo unspecified) are T1: inactive; T2: inactive; T3: inactive.
Calls for Cc1cccc(Cn2nnc(C(=O)NCc3ccccc3)c2N)c1 are T1: inactive; T2: inactive; T3: inactive.
Calls for C[C@]1(O)CCN(C(=O)c2cc(Cl)ccc2F)C[C@@H]1O are T1: inactive; T2: inactive; T3: inactive.
Calls for O=C(O)C1CC2(CCNCC2)CN1C(=O)c1ccccc1C(F)(F)F (stereo unspecified) are T1: inactive; T2: inactive; T3: inactive.
Calls for COc1ccc(C(Cc2ccccc2)NC2CN3CCC2CC3)cc1 (stereo unspecified) are T1: inactive; T2: inactive.
Calls for CC(C)(C)CC(Nc1nc(-c2cccnc2)nc2c1CNC2)c1cccnc1 (stereo unspecified) are T1: inactive; T2: inactive; T3: inactive.
Calls for CNc1c(N)c(=O)oc2ccccc12 are T1: inactive; T2: inactive; T3: inactive.
Calls for CC(C)NCc1ccc(-c2ccccc2)cc1.Cl are T1: inactive; T2: inactive; T3: inactive.
Calls for CCNC(=O)Nc1ccc(Oc2ncnc(N)c2C=NOC)cc1Cl are T1: inactive; T2: inactive; T3: inactive.
Calls for O=NN(CCCl)C(=O)NCCCl are T1: inactive; T2: inactive; T3: inactive.
Calls for O=C(Nc1cccc([N+](=O)[O-])c1)c1cccc(S(=O)(=O)N(CCO)CCO)c1 are T1: inactive; T2: inactive; T3: inactive.
Calls for O=C(Nc1csnn1)c1csnn1 are T1: inactive; T2: inactive; T3: inactive.

The first 2 entries again:

| SMILES | T1 | T2 | T3 |
|---|---|---|---|
| `CC1(C)CC(C(CCN)c2ccccc2)CCO1` (stereo unspecified) | inactive | inactive | inactive |
| `CSc1nc2c(c(Nc3ccccc3C)n1)CCC2` | inactive | inactive | - |

Source: the ROBIN nucleic acid binder screens (doi:10.1002/anie.202211358).